These are yes or no findings as the source states them, for the method shown. Some results given as binding are weak or reduced against the parent protein; the word gives no strength. Sequences can lack the tags named with a protein.
Target: glucagon receptor (UniProt P47871 26-477, limits assumed)
Assay: told in the description with reference to Example 31 (cell calcium flux assay)

By UniProt entry, the sequences of proteins in these tests, tags left out. Residues count along the entry.
UniProt P47871, residues 26-477: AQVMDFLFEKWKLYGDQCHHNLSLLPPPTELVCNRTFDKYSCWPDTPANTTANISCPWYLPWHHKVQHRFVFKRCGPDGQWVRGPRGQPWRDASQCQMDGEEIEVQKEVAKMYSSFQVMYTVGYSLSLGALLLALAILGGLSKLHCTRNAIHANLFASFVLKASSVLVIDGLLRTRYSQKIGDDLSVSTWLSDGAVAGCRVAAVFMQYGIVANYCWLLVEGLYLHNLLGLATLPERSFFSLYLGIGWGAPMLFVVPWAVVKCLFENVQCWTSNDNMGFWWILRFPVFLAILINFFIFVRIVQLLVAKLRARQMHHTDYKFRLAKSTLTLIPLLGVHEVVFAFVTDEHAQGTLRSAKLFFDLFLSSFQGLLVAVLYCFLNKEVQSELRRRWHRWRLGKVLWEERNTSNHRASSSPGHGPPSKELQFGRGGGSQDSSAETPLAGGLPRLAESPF

B1: glucagon-Y288 (other)
chain: HSQGTFTSDYSKYLDSRRAQDFVQWLMNTGEGSGEGSEGEGSEGSGEGEGSEGSGEGEGGSEGSEGEGGSEGSEGEGGSEGSEGEGSGEGSEGEGGSEGSEGEGSGEGSEGEGSEGGSEGEGGSEGSEGEGSGEGSEGEGGEGGSEGEGSEGSGEGEGSGEGSEGEGSEGSGEGEGSGEGSEGEGSEGSGEGEGSEGSGEGEGGSEGSEGEGSEGSGEGEGGEGSGEGEGSGEGSEGEGGGEGSEGEGSGEGGEGEGSEGGSEGEGGSEGGEGEGSEGSGEGEGSEGGSEGEGSEGGSEGEGSEGSGEGEGSEGSGE
binding: binds

From US20170037088A1 (published 2017)
